This passage reports binding results from publication PMC5366948.

Chains of the proteins cited; added tags and fusions are not shown. Residues count along the entry.
UniProt P50750, residues 7-332: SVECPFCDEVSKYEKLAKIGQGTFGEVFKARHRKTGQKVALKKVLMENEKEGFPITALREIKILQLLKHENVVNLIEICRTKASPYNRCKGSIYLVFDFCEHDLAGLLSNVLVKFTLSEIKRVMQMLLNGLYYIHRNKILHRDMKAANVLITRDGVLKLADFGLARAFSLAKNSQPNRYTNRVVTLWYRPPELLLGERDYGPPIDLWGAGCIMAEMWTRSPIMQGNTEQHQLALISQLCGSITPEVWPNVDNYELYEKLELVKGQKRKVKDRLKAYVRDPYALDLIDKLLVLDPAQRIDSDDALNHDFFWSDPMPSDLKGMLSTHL
UniProt O60563, residues 1-266: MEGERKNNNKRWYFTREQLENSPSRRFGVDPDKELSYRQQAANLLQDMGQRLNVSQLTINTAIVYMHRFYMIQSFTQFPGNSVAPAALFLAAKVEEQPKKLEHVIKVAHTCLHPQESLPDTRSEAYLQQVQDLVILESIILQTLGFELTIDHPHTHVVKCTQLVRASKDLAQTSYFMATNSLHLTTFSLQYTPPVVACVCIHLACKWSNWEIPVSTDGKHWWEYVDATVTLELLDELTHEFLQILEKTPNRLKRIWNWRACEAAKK
UniProt P04608: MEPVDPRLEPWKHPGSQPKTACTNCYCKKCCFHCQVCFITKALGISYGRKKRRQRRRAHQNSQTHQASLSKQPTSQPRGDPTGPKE

Results are given in words; binding and its absence hold for the method and conditions named. For some of these results: Binding seen in cells or lysates may run through a third protein. Some entries that bind do so weakly or less than the wild type. For some of these results: Sequences can lack the tags named with a protein.

Test [1] addresses CDK9 (7-332) with a 6x His-tag (UniProt P50750). Briefly: co-expression and co-purification of a complex; CDK9 (7-332) with 6x His-tag and cyclin T1 (1-266) in pFastBac Dual, Tat (1-86) in pFastBac1; complex expressed and purified as previously described (ref. 52).
The target of another test is cyclin T1 (1-266) (UniProt O60563). The description is as above.
Test [2] concerns the target T1, PJA2 r2m RING domain mutant (C634A, C671A) with a C-terminal 3x-FLAG tag (UniProt O43164).
T1 sequence: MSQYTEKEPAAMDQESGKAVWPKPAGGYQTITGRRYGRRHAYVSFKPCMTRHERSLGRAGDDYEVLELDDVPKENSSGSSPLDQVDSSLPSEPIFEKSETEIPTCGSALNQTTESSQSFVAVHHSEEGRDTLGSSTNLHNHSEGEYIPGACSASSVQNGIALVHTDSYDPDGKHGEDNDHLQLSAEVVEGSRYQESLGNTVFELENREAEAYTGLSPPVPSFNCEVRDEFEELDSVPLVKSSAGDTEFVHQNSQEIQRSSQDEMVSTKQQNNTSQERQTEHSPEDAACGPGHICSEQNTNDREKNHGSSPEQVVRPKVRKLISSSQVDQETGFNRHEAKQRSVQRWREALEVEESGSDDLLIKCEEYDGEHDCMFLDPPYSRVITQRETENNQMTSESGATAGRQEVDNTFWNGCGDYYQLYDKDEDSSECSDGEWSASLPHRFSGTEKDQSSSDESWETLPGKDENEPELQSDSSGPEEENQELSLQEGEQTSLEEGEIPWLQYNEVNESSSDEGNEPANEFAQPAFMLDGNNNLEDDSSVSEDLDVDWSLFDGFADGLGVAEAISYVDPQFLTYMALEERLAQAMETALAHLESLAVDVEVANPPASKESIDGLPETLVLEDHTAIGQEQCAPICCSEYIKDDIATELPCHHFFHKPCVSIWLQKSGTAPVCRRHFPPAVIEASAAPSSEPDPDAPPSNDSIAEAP
Briefly: co-IP; FLAG IP: FLAG-tagged PJA2 variants co-transfected with vector, Tat-STREP or Tat ΔK (+K41)-STREP into HEK 293T cells, lysate on magnetic M2-FLAG resin 3 h at 4 °C, eluted with 3x FLAG peptide; probed with anti-STREP, anti-CYCT1 and anti-CDK9.

The target in test [3] is T2, PJA2 wild type with a C-terminal 3x-FLAG tag (UniProt O43164).
T2 sequence: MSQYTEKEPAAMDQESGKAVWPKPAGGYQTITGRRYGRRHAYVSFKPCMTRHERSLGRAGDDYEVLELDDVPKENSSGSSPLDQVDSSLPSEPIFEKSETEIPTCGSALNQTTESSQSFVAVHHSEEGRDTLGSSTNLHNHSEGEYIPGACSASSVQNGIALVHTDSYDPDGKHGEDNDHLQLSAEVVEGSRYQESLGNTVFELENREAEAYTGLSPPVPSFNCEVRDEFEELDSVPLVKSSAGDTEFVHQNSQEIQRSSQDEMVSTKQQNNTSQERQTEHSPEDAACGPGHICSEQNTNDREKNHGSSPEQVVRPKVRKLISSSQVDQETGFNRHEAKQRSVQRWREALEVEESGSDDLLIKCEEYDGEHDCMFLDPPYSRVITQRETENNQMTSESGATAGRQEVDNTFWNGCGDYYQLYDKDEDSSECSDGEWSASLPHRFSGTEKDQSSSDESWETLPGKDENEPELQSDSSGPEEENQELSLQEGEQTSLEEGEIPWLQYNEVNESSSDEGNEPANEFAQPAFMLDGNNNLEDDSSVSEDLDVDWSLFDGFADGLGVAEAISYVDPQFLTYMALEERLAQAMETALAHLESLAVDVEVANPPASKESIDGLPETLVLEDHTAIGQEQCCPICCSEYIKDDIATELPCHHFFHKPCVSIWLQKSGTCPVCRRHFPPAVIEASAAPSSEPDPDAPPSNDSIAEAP
The test is described as above.

The target in test [4] is HIV-1 Tat protein (HXB2 isolate), wild type, with a C-terminal 2x-STREP tag (HIV-1 (HXB2 isolate)) (UniProt P04608). Briefly: co-IP; STREP IP: STREP-tagged bait transfected into HEK 293T cells, lysate (50 mM Tris-HCl pH 8.0, 150 mM NaCl, 2 mM MgCl2, 0.5% Triton X-100, 0.2% Na-deoxycholate) on Streptactin Superflow resin 3 h at 4 °C; endogenous PJA2 detected by Western blotting with anti-PJA2; RNA-independent. (Immunoblotting shows a protein as a band on a membrane.)

In the case of “HIV-1 Tat (1-86), from the pFastBac1 vector (from UniProt P04608 1-86)”, the binding entry (in test [1]; with cyclin T1 (1-266)) was “binds” in each case.
As for “HIV-1 Tat protein (HXB2 isolate), wild type, with a C-terminal 2x-STREP tag (from UniProt P04608 1-86)”, the binding entry in test [2] and in test [3] was “binds” in each case.
As to “positive transcription elongation factor b (P-TEFb), endogenous, composed of Cyclin T1 (CCNT1) and cyclin-dependent kinase 9 (CDK9) (from UniProt O60563 1-726; P50750 1-372) (complex)”, the binding result in test [2] and in test [3] was “binds” throughout.

B1: endogenous PJA2 (RING-H2 finger E3 ubiquitin ligase) (enzyme, UniProt O43164 1-708)
chain: MSQYTEKEPAAMDQESGKAVWPKPAGGYQTITGRRYGRRHAYVSFKPCMTRHERSLGRAGDDYEVLELDDVPKENSSGSSPLDQVDSSLPSEPIFEKSETEIPTCGSALNQTTESSQSFVAVHHSEEGRDTLGSSTNLHNHSEGEYIPGACSASSVQNGIALVHTDSYDPDGKHGEDNDHLQLSAEVVEGSRYQESLGNTVFELENREAEAYTGLSPPVPSFNCEVRDEFEELDSVPLVKSSAGDTEFVHQNSQEIQRSSQDEMVSTKQQNNTSQERQTEHSPEDAACGPGHICSEQNTNDREKNHGSSPEQVVRPKVRKLISSSQVDQETGFNRHEAKQRSVQRWREALEVEESGSDDLLIKCEEYDGEHDCMFLDPPYSRVITQRETENNQMTSESGATAGRQEVDNTFWNGCGDYYQLYDKDEDSSECSDGEWSASLPHRFSGTEKDQSSSDESWETLPGKDENEPELQSDSSGPEEENQELSLQEGEQTSLEEGEIPWLQYNEVNESSSDEGNEPANEFAQPAFMLDGNNNLEDDSSVSEDLDVDWSLFDGFADGLGVAEAISYVDPQFLTYMALEERLAQAMETALAHLESLAVDVEVANPPASKESIDGLPETLVLEDHTAIGQEQCCPICCSEYIKDDIATELPCHHFFHKPCVSIWLQKSGTCPVCRRHFPPAVIEASAAPSSEPDPDAPPSNDSIAEAP
In the case of B1, the binding entry in test [4] is “binds”.
